These are yes or no findings as the source states them, for the method shown. In cells and extracts the contact can be indirect. Here binding means that the protein was enriched with, or labelled near, the bait; the list need not be complete.

Amino acid sequences for entries named in this document (tags omitted). A change or cut given only in a name is not applied to a line headed by its entry.
UniProt P35680: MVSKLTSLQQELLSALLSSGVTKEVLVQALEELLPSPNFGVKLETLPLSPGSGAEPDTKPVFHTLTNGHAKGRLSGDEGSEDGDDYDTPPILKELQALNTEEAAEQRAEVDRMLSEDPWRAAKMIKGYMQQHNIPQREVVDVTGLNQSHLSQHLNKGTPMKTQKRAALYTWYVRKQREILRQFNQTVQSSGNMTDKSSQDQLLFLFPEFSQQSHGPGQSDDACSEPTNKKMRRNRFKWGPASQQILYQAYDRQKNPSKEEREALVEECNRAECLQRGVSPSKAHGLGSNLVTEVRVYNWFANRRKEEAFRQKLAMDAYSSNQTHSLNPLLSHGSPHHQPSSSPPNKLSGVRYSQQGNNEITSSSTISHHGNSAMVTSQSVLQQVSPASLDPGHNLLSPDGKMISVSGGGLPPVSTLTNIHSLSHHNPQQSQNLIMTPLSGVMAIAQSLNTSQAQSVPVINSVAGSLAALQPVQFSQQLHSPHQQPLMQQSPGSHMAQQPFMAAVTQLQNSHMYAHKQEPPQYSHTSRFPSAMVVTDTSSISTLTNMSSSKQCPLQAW
UniProt Q8N726: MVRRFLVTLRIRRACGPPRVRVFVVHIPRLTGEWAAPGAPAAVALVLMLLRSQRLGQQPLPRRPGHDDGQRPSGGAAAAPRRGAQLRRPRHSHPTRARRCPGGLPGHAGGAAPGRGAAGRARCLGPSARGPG

This passage reports binding results from PMC7754016.

In the experiment the target is Flag-HNF1B (Hepatocyte Nuclear Factor 1β) (UniProt P35680). Kind of experiment: affinity purification with mass spectrometry; cell lysate incubated with the marker antibody 3 h at 4°C, protein A-Sepharose beads 1 h at 4°C, washed five times with NETN buffer; gel piece with the FLAG-HNF1B complex digested with trypsin, LC-MS/MS.

Regarding “CDKN2A found in the FLAG-HNF1B immunoprecipitate (from UniProt Q8N726)”, the binding entry is “binds”.
